What all share (assay type): biochemical
The target in assay [1] is T1, Trypsin-3 (Homo sapiens, UniProt P35030). Put plainly: Kinetic progress curves (kapp, K1, KI*, mechanism). Particulars: apparent second-order rate constant from progress curves; mean ± SD; tested form: TFA. As to the method: (§1) Because the compounds described in this paper were previously described as irreversible inhibitors, the IC50 value is inversely correlated with the second-order rate constant of inactivation. For a simple pseudo-first-order inactivation process, the activity after incubation with inhibitor (vi) varies with the inhibitor concentration (i), as described in the following equation: vi=v0·e^−kit where v0 is the activity in the absence of an inhibitor, k is the second-order rate constant of inactivation, and t is the time. The inactivation rate constant was determined from the time course of inhibition.
(§2) Kinetic assays were performed in the following manner. The inhibitor was mixed with the substrate, and the buffer solution with the enzyme was added at the time zero. The progress curves show the release of pNA or AMC as a function of time. Initially, no inhibitor is bound to the enzyme, and the tangent to the progress curve (dA/dt) is proportional to the free enzyme concentration. The free enzyme concentration decreases over time due to inhibitor binding kinetics, as described above. Progress curves were recorded in pseudo-first-order conditions ([I]0>>[E]0) and with less than 10% conversion of the substrate during the entire time course. In these conditions, dA/dt decreases exponentially with time. The progress curves were fitted with the integrated rate equation with GraFit7 to yield a value for kobs, a pseudo-first-order rate constant. At=Ao+vs∙t+vi−vs∙1−e^−kobs∙t/kobs where At is the absorbance at time t, A0 is the absorbance at time zero, vi is the initial rate and vs is the velocity at the steady-state.
(§3) The apparent second-order rate constant (kapp) was calculated from the slope of the linear part of the plot of kobs vs. the inhibitor concentration ([I]0). […]

Chains of the proteins cited; added tags and fusions are not shown. Residues count along the entry.
UniProt P35030, whole entry: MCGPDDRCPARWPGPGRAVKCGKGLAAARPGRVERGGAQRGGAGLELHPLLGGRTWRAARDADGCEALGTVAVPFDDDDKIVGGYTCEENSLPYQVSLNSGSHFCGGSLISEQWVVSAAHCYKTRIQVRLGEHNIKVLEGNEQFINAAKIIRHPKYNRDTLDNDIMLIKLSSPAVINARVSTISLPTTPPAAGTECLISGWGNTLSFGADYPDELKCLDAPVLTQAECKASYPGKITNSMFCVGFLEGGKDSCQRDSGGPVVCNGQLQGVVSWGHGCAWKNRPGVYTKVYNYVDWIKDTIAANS
UniProt P20231, 31-275 limits assumed: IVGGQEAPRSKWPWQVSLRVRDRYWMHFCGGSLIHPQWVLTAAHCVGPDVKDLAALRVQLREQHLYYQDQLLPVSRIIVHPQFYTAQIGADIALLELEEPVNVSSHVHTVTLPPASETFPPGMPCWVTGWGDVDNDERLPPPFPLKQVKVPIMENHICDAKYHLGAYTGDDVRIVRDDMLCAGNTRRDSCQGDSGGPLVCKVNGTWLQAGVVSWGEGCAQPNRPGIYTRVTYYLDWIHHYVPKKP

Assay [2] deals with T2, Thrombin (Homo sapiens, UniProt P00734). Put plainly: Kinetic progress curves (kapp, K1, KI*, mechanism). Particulars: apparent second-order rate constant from progress curves; mean ± SD; tested form: TFA. As to the method: as §1, §2, §3
The target of assay [3] is T3, uPA (Homo sapiens, UniProt P00749). Put plainly: Jump dilution, determination of inhibition type. The note with it: inhibitor at 10 times IC50, 15 min, diluted 10-fold or 100-fold; Rev./Irrev.; tested form: TFA. As to the method:
(§4) To monitor the dissociation of the inhibitor-enzyme, aliquots of the enzyme were incubated at 37°C without and with the inhibitor at a concentration 10 times higher than its IC50. The enzyme concentration was 2.5 times higher than the concentration used for the IC50 determinations. After 15 min, the aliquots were diluted 10-fold or 100-fold into the substrate concentration and assay buffer used for the IC50 determination. The dissociation of the enzyme-inhibitor complex was monitored by substrate hydrolysis over time ([Joossens et al., 2006]).
(§5) Because ABPs are designed to be irreversible serine protease inhibitors, the IC50 is exclusively used as a first discriminatory evaluation. When an inhibitor is irreversible, its IC50 value not only depends on the substrate and enzyme concentration but also on the time of incubation with the enzyme before the reaction is started by adding the substrate. […] The progress curve in the presence of an irreversible inhibitor will show final velocities equal to zero (Figure 6C). In contrast, for a reversible inhibitor, progress curves have a non-zero final steady-state velocity (Figure 6A) ([McWhirter, 2021]). To corroborate the inhibitory mechanism of the compounds, jump-dilution assays were performed. These use an inhibitor concentration of 10-fold the IC50 for the incubation, and a posteriori, the reaction mixture is diluted 10-fold or 100-fold before adding the substrate. In the case of an irreversible inhibitor, enzymatic activity is not regained (Figure 6D), whereas, in the case of a reversible compound, a slow release of the inhibitor and a gradual increase of the enzymatic activity rate is observed (Figure 6B) ([Copeland, 2013]; [McWhirter, 2021]). The jump-dilution assays confirmed the behavior described by the progress curves.
(§6) 2.2.2 Jump dilution results
(§7) Supplementary Table 2. Jump dilution of selected alkyne and desthiobiotin probes against a panel of trypsin-like serine proteases. […]
(§8) # R R DtBa 3 tryptase Thrombin uPA CatG
(§9) 32b H Alk Irrev. Irrev. Rev. Irrev. Rev.
(§10) 45b DtB Irrev. Irrev. Rev. N.D. N.D.
(§11) 33b Alk Irrev. Irrev. Rev. Irrev. Rev.
(§12) 46b Cl DtB Irrev. Irrev. Rev. N.D. N.D.
(§13) 34b H Alk Rev. Rev. Rev. Irrev. Rev.
(§14) 50b DtB Rev. Rev. Rev. Irrev. Rev.
(§15) 35b Alk Rev. Rev. Rev. Irrev. Rev.
(§16) 52b NHCOMe DtB Rev. Rev. Rev. Irrev. Rev.
(§17) 36b Alk Rev. Rev. Rev. Irrev. Rev.
(§18) 54b Cl DtB Rev. Rev. Rev. Irrev. Rev.
(§19) 37b Alk Irrev. Irrev. N.D. Irrev. Irrev.
(§20) 55b H DtB Irrev. Irrev. N.D. Irrev. Irrev.
(§21) 38b Alk Irrev. Irrev. N.D. Irrev. Irrev.
(§22) 56b NHCOMe DtB Irrev. Irrev. N.D. Irrev. Irrev.
(§23) 39b Alk Irrev. Irrev. N.D. Irrev. Rev.
(§24) 57b Cl DtB Irrev. Irrev. N.D. Irrev. Rev.
(§25) 41b H Alk Irrev. Irrev. Irrev. N.D. N.D.
(§26) 31b Pro-Lys H Alk Irrev. Irrev. […]

The target of assay [4] is T1, Trypsin-3. Put plainly: Jump dilution, determination of inhibition type. The note with it: inhibitor at 10 times IC50, 15 min, diluted 10-fold or 100-fold; Rev./Irrev.; tested form: TFA. As to the method: as §4, §5, §6, §7, §8, §9, §10, §11, §12, §13, §14, §15, §16, §17, §18, §19, §20, §21, §22, §23, §24, §25, §26
Assay [5] deals with β-tryptase (Homo sapiens, UniProt P20231). Put plainly: Jump dilution, determination of inhibition type. Particulars: inhibitor at 10 times IC50, 15 min, diluted 10-fold or 100-fold; Rev./Irrev.; tested form: TFA. As for the experimental part:
as §4, §5, §6, §7, §8, §9, §10, §11, §12, §13, §14, §15, §16, §17, §18, §19, §20, §21, §22, §23, §24, §25, §26

In assay [6] the target is T2, Thrombin. Put plainly: Jump dilution, determination of inhibition type. Particulars: inhibitor at 10 times IC50, 15 min, diluted 10-fold or 100-fold; Rev./Irrev.; tested form: TFA. As for the experimental part: as §4, §5, §6, §7, §8, §9, §10, §11, §12, §13, §14, §15, §16, §17, §18, §19, §20, §21, §22, §23, §24, §25, §26
Assay [7] concerns the target T3, uPA. Put plainly: Kinetic progress curves (kapp, mechanism). The note with it: apparent second-order rate constant from progress curves; mean ± SD; tested form: TFA. As for the experimental part: as §1
Kinetic assays were performed in the following manner. The inhibitor was mixed with the substrate, and the buffer solution with the enzyme was added at the time zero. The progress curves show the release of pNA or AMC as a function of time. […] Progress curves were recorded in pseudo-first-order conditions ([I]0>>[E]0) and with less than 10% conversion of the substrate during the entire time course. […] At=Ao+vs∙t+vi−vs∙1−e^−kobs∙t/kobs where At is the absorbance at time t, A0 is the absorbance at time zero, vi is the initial rate and vs is the velocity at the steady-state.
as §3

Structures were worked out from names or drawings and are uncertain.

Consider `C#CCCCC(=O)N1CCCC1C(=O)NC(CCCCN)P(=O)(Oc1ccccc1)Oc1ccccc1` (stereo not shown), for which the Trypsin-3 kapp in assay [1] is 13 × 10^2 ± 28 M^−1 s^−1. Further, in assay [2], the Thrombin kapp is 13 × 10^2 ± 5 M^−1 s^−1. Besides, the “uPA jump dilution result” value in assay [3] was “Irrev”. Besides, the “Trypsin-3 jump dilution result” value in assay [4] is given as “Irrev”. The “β-tryptase jump dilution result” value in assay [5] is given as “Irrev”. Also, the “Thrombin jump dilution result” value in assay [6] is recorded as “Irrev”. Further, the uPA kapp in assay [7] amounted to 188 ± 1 M⁻¹ s⁻¹.
